This test has as its target T1, Receptor interaction protein 3 (RIP3) (rat (endogenous in NRK-52E)) (UniProt Q9Z2P5).
T1 sequence: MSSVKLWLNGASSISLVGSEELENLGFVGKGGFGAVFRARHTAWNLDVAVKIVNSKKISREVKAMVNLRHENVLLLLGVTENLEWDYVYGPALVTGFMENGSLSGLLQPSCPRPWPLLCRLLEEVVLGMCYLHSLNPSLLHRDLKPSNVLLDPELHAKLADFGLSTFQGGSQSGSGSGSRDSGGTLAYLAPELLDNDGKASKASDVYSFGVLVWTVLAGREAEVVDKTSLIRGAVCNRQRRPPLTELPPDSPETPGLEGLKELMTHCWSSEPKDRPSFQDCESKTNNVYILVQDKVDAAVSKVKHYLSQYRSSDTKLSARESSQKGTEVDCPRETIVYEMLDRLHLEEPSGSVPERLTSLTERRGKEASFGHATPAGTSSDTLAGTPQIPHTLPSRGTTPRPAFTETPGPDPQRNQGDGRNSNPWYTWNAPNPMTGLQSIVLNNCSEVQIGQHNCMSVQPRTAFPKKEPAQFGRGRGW
The test is described as follows: co-IP; whole cell lysates of NRK-52E cells after 6 hr of hypoxia and 1, 12 or 24 hr of reoxygenation; 500 µg protein extract with 1 µg IP antibody, protein G Sepharose, 4 °C overnight, four washes with cell lysis buffer; Western blot.

These are yes or no findings as the source states them, for the method shown. Binding seen in cells or lysates may run through a third protein. A result given as binding can be weak or reduced; the word gives no strength.

For “Receptor-interacting kinase 1 (RIP1) (rat (endogenous in NRK-52E))”, the binding entry is recorded as “binds”.

Values taken from PMC6118090.
